The target in assay [1] is T1, hFcRn&b2M蛋白 (human) (UniProt P55899+P61769). Put plainly: SPR (Biacore), hFcRn on CM5 chip, 200nM analyte.
Assay [2] addresses T1, hFcRn&b2M蛋白 (human). The experiment in a line: SPR, hFcRn&β2M on CM5 chip, 200nM analyte, pH 6.0 and pH 7.4.

Amino acid sequences for entries named in this document (tags omitted). A change or cut given only in a name is not applied to a line headed by its entry.
UniProt P55899: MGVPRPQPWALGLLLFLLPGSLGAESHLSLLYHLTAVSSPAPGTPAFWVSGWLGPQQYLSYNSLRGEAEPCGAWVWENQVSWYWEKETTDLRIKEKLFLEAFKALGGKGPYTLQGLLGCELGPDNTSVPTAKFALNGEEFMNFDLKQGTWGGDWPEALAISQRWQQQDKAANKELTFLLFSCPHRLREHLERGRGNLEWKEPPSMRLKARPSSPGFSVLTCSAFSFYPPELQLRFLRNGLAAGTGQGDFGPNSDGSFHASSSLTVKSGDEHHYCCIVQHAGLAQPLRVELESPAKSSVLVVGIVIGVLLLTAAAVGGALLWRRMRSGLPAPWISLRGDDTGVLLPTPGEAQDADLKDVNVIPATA
UniProt P61769: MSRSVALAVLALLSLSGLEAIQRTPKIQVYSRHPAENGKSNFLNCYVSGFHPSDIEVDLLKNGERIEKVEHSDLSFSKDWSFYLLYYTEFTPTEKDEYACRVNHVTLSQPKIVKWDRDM

Results are given in words; binding and its absence hold for the method and conditions named. Some entries that bind do so weakly or less than the wild type.

B1: 融合蛋白G12 (protein)
chain: HGEGTFTSDVSSYLEEQAAKEFIAWLVKGGGGGGGSGGGGSGGGGSDIQLTQSPSSLSASVGDRVTLTCQATQDIDNNLNWYQQKPGKAPKLLIYDASNLETGVPSRFSGSGSGTDFTFTISDLQPEDVATYYCQQYYNLPLTFGGGTKVDIKRSRGGGGSGGGGSGGGGSLEMAEVQLVQSGAEVKKPGASVKVSCKASGYTFTSYDINWVRQATGQGLEWMGWMNPNSGNTGYAQKFQGRVTMTRNTSISTAYMELSSLRSEDTAVYYCARGVDLGDGWGQGTLVTVSS
For the molecule B1, the binding result in assay [1] and in assay [2] was “binds” each time.

The record behind these values is CN106957364A.
